Measured values published in PMC13156305.

Sequences of proteins named here, by UniProt entry; tags and fusion partners are left off.
UniProt Q15386: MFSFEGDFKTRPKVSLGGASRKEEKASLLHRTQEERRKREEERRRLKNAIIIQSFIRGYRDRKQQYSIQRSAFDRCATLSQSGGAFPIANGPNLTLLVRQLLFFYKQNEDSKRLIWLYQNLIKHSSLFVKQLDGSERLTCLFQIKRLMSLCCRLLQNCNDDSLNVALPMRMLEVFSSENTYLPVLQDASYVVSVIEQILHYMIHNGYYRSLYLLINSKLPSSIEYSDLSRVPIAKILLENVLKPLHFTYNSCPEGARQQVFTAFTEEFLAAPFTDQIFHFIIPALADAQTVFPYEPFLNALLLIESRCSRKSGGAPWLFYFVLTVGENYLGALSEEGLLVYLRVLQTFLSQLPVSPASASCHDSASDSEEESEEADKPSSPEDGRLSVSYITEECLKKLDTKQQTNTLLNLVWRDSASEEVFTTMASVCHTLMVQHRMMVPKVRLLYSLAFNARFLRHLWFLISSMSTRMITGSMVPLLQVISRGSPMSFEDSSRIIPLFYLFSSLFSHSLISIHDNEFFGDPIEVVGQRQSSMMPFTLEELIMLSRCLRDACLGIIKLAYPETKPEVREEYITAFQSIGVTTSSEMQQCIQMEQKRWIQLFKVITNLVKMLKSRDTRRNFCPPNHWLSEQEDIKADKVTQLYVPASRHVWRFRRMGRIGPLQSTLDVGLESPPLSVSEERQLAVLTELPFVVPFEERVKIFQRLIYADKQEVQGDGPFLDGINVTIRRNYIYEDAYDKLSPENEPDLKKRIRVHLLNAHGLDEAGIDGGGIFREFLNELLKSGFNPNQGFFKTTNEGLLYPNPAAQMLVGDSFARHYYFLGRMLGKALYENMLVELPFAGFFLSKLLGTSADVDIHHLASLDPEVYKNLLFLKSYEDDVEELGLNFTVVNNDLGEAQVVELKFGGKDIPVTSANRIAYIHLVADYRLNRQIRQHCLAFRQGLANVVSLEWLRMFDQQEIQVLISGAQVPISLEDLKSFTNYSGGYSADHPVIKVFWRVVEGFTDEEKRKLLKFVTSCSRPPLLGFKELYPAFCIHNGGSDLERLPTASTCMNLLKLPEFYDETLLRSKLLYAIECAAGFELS
UniProt O94822: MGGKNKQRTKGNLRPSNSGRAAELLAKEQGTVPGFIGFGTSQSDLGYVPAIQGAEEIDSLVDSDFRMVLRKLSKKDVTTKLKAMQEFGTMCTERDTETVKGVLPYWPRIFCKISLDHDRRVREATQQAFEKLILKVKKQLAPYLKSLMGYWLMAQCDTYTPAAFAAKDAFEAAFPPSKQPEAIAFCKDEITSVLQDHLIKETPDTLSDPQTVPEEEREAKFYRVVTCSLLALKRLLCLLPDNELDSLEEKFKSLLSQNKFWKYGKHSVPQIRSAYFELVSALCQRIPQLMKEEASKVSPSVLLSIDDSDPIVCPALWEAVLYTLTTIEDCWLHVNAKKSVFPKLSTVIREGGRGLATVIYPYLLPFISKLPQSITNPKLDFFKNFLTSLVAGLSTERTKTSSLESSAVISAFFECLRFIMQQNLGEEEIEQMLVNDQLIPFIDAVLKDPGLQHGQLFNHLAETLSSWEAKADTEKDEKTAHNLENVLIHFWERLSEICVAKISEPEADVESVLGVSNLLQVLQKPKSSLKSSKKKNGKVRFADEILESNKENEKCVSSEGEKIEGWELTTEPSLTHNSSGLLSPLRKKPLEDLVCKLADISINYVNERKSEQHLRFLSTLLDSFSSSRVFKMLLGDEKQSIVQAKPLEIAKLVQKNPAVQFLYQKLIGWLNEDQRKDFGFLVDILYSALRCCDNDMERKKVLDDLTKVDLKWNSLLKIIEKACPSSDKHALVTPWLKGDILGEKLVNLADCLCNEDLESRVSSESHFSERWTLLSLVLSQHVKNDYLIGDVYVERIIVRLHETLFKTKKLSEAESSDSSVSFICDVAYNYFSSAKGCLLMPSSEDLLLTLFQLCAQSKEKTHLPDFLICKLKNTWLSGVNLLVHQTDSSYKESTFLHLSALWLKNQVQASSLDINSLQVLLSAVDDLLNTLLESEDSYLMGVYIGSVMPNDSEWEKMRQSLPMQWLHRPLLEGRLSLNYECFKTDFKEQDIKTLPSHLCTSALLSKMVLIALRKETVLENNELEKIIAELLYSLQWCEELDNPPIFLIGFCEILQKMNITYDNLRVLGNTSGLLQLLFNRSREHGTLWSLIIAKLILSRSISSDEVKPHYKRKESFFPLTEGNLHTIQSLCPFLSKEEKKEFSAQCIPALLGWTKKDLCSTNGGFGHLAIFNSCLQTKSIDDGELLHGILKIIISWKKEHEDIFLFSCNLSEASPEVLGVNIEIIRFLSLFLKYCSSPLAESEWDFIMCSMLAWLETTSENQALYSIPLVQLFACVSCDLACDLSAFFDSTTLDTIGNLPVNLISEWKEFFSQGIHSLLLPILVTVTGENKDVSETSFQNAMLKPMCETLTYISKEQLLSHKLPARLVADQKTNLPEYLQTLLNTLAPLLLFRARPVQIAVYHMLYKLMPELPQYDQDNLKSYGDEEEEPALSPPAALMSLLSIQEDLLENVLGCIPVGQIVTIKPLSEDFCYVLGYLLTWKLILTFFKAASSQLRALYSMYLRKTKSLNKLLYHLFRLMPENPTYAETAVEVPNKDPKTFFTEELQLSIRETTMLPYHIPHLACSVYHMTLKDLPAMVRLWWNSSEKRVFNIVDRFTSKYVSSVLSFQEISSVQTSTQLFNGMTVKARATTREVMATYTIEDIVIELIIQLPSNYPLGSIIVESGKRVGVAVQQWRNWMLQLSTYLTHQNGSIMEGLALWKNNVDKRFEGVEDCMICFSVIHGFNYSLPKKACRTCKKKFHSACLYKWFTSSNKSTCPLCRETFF
UniProt Q14258: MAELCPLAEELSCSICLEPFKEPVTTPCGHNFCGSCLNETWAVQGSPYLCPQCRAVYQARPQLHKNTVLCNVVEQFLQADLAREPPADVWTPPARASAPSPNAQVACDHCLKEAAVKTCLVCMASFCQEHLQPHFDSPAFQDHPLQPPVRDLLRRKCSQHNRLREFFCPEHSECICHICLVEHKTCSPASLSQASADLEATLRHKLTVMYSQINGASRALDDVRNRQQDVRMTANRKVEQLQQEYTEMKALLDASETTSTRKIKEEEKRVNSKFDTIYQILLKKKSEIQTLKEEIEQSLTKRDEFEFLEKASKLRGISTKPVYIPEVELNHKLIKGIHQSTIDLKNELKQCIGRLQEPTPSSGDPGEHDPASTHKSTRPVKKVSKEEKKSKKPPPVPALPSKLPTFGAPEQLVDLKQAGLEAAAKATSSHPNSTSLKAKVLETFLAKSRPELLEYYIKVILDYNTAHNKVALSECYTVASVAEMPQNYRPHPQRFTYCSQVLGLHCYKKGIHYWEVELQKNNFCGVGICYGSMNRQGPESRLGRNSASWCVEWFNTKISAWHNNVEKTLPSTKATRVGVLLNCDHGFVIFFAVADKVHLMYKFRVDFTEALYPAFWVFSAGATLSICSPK
UniProt O95071: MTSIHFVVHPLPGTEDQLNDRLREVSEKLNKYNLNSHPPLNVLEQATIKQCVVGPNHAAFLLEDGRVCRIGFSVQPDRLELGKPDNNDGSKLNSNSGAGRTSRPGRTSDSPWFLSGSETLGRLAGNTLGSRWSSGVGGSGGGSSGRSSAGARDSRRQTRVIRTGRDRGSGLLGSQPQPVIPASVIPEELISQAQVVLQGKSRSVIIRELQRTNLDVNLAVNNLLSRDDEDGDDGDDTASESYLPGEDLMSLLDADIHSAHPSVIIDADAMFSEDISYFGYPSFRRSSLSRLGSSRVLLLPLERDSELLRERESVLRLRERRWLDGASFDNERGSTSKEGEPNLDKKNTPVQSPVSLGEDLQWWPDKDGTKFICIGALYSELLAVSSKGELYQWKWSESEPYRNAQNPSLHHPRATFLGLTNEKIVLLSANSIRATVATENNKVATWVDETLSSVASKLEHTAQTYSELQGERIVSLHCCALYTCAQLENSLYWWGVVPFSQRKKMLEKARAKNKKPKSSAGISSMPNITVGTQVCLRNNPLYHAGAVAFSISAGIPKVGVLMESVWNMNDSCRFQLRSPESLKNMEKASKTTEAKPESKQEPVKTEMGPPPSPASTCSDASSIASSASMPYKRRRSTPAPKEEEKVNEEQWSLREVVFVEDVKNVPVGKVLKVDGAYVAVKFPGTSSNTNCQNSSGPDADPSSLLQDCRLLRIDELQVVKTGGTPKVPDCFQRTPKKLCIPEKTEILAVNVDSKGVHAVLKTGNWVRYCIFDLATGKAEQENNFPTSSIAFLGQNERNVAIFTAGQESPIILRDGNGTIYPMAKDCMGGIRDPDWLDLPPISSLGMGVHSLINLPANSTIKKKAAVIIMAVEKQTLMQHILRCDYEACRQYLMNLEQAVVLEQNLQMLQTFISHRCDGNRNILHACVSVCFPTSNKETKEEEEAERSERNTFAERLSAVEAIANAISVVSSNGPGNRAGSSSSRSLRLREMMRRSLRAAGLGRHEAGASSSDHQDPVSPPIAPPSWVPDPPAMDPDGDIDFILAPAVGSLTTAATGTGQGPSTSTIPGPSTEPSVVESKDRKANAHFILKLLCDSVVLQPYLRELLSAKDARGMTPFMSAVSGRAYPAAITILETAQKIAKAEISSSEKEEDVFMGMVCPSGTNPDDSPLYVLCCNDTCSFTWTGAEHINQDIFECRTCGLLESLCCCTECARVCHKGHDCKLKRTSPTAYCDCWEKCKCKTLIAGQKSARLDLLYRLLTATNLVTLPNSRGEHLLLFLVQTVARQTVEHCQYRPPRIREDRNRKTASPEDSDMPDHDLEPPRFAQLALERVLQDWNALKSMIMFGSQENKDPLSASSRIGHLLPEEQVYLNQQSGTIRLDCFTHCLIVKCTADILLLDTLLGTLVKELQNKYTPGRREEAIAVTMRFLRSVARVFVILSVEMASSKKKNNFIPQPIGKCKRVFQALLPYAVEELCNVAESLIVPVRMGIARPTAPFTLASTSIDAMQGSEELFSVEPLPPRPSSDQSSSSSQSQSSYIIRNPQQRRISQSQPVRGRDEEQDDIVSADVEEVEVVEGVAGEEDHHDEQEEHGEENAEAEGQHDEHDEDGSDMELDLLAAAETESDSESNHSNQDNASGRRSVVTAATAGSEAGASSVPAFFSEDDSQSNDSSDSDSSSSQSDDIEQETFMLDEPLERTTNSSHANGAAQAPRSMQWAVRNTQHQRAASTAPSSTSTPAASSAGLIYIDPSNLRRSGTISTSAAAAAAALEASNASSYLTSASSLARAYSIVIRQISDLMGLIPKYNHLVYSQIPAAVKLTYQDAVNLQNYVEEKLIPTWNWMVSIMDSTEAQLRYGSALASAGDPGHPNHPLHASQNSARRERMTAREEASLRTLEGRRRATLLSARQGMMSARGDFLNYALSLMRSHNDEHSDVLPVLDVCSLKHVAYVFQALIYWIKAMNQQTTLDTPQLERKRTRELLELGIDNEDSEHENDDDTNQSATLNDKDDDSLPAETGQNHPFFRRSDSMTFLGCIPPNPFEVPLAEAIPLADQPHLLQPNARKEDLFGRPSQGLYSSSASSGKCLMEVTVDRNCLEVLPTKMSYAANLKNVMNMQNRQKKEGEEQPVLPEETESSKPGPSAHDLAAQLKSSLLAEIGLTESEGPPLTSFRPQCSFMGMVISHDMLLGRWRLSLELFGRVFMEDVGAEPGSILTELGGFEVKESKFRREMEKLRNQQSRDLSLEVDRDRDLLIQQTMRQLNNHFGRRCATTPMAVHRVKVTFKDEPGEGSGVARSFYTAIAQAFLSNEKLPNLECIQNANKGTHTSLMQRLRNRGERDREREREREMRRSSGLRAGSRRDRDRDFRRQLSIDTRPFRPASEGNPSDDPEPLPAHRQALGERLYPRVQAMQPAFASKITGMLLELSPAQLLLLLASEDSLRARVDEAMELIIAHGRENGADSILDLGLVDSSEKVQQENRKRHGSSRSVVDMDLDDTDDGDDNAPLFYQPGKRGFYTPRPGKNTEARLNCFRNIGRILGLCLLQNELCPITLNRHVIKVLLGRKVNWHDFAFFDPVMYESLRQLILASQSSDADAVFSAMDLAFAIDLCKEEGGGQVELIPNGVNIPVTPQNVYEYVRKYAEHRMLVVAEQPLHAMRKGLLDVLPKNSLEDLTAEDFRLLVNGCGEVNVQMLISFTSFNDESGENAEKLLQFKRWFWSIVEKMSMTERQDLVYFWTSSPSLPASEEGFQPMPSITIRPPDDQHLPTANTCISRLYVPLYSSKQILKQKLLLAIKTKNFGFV

target: T1, Src-Like Adaptor Protein (SLAP)-Flag, overexpressed in CRC cells (UniProt Q60898); assay: affinity purification with mass spectrometry; SILAC; SW620 cells overexpressing SLAP-Flag; CHAPS lysis buffer; heavy and light lysates (30 mg) mixed and immunoprecipitated with anti-Flag M2 agarose overnight at 4 °C
T1 sequence: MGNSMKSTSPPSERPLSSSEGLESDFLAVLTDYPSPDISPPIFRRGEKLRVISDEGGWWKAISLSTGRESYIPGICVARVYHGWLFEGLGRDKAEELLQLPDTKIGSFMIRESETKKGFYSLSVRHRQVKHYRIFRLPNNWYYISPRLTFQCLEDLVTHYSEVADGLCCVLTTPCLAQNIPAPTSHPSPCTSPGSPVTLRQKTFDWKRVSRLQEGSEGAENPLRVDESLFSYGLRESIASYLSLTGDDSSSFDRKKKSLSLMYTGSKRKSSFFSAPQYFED

binding, binds:
E3 ubiquitin ligase UBE3C, endogenous in CRC cells (from UniProt Q15386 1-1083) (enzyme)
LTN1, endogenous in SW620 cells (from UniProt O94822 1-1766) (enzyme)
TELO2, endogenous in SW620 cells (from UniProt Q9Y4R8 1-837)
TRIM25, endogenous in SW620 cells (from UniProt Q14258 1-630) (enzyme)
TTI1, endogenous in SW620 cells (from UniProt O43156 1-1089)
UBR5, endogenous in SW620 cells (from UniProt O95071 1-2799) (enzyme)

These are yes or no findings as the source states them, for the method shown. Binding seen in cells or lysates may run through a third protein. These calls come from enrichment with a bait or labelling near it, and not all partners need be listed. Sequences can lack the tags named with a protein.
